Results from PubChem BioAssay AID2685 (National Center for Advancing Translational Sciences (NCATS), 2010).
This is one part of the list. Shown are side measurements of this screen, not its main read-out; they come without a call. Compounds called inactive in the main read-out are mostly missing here. Potencies come from curve fits of mixed quality, noted in brackets.

Assay: qHTS Assay for Lipid Storage Modulators in Drosophila S3 Cells;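 as to cell number change: cells counted by Cell Tracker Red CMTPX staining in the red channel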
Conditions: BODIPY lipid droplet fluorescence, 18-24 h; for cell number change: measured here: cell count max response, cells fed with added oleic acid
Summary of the method: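 Drosophila S3 cells got compounds at several concentrations plus oleic acid (400 uM solution). Laser-scanning cytometry with 488 nm excitation read lipid droplets at 500-530 nm and cells at 575-640 nm. Percent activity was relative to 20 uM Triacsin C.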

[1] = measured here: cell number channel AC50, cells fed with added oleic acid
[2] = measured here: lipid fluorescence (Fed channel) AC50, cells fed with added oleic acid

SMILES	cell number change	AC50 [1]	AC50 [2]
c1ccc2c(NCC3CCCO3)nc(N3CCCCC3)nc2c1 (configuration not stated)	30.2%	18.4 µM [rising, single point]	
O=C(Nc1nc(-c2ccc3c(c2)OCO3)cs1)C1CC1			0.58 µM [rising, single point]
COc1ccc(Nc2nc3ccccc3n3nnnc23)cc1		2.31 µM [rising, partial curve]	
Cc1cc([N+](=O)[O-])nn1CC(=O)Nc1sc2c(c1C(N)=O)CCCC2	36.4%	3.26 µM [rising, partial curve]	29.1 µM [rising, single point]
CCOC(=O)c1ccc(CNC(=O)C2CCC(=O)N(CCc3ccccc3)C2)o1 (configuration not stated)	-73.7%	23.1 µM [falling, partial curve, poor fit]	
CCN(CC)CCn1c2c(c(SCC(=O)Nc3cccc4ccccc34)nc1=O)CCCC2	23.4%		8.2 µM [rising, partial curve, poor fit]
CCN1CCN(CC(O)COc2cccc(OC)c2)CC1 (configuration not stated)	0.354%		6.51 µM [falling, single point]
CC1=C(C(=O)Nc2ccccc2)C(c2ccco2)n2ncnc2N1 (configuration not stated)	13.5%		9.2 µM [rising, partial curve, poor fit]
COc1ccc(/C(N)=N/OC(=O)c2ccco2)cc1		6.51 µM [rising, partial curve, poor fit]	
O=S(=O)(Nc1ccncc1)c1ccc(Cl)cc1			29.1 µM [falling, single point]
CCN(CC)c1ccc(-c2nnc(SCC(=O)Nc3ccccc3C#N)n2-c2ccccc2)cc1	-20.5%		11.6 µM [falling, partial curve, poor fit]
Cc1c(NS(=O)(=O)c2cc(NC(=O)CCN3CCCC(C)C3)ccc2Cl)c(=O)n(-c2ccccc2)n1C (configuration not stated)	14.1%	0.731 µM [falling, full curve, poor fit]	
O=C(CSc1nnc(NC(=O)c2c(F)cccc2F)s1)NC1CC1	-8.4%		
COc1ccc(-c2nc(CC(=O)O)cs2)cc1	-47%	32.6 µM [falling, partial curve, poor fit]	
C=CCNC(=O)c1ccc2c(c1)nnn2C	4.49%		6.51 µM [falling, single point]
Cc1ccc(C)c(N2CCN(c3nc4ccccc4c(=O)n3Cc3ccccc3)CC2)c1	10.2%		0.411 µM [rising, full curve, poor fit]
CC1CCN(C(=O)c2cccc(NC(=O)c3cccs3)c2)CC1	6.76%		
CCOc1ccc(-n2cnnn2)cc1S(=O)(=O)Nc1c(C)cccc1C	19.7%	1.64 µM [rising, partial curve, poor fit]	0.58 µM [rising, full curve, poor fit]

Single records, from the list above:
Cc1c(NS(=O)(=O)c2cc(NC(=O)CCN3CCCC(C)C3)ccc2Cl)c(=O)n(-c2ccccc2)n1C (configuration not stated) as listed: cell number change: 14.1%; AC50 [1]: 0.731 µM [falling, full curve, poor fit]
CC1=C(C(=O)Nc2ccccc2)C(c2ccco2)n2ncnc2N1 (configuration not stated) as listed: cell number change: 13.5%; AC50 [2]: 9.2 µM [rising, partial curve, poor fit]
